Most values lie at the floor of the assay. Slopes are relative: functional sequences can read slightly below zero.

In the series the test system is Saccharomyces cerevisiae PS128 hsf1 delta, HSF1(1-493) fusion. The series can be described thus: growth estimate (transactivation domain function in HSF1 fusion, heat-shock survival) (a.u. (slope of normalised read count over time)); higher = stronger growth at 37°C, i.e. more transactivation activity. To be noted: library: random library.
Turning to RVHERG, the growth estimate was less than -0.25.
Then GTPSLWPLPLQLVDMECKA, with less than -0.25.
Then SSMTAPLLGRNSASIVISAG, with less than -0.25.
Then ILCRSVPAHPRR, with less than -0.25.
Take LLFWERSGKLSSVQTMLSYA: the growth estimate is -0.246.
Consider ILTLQSVLNVGMDGPRRTFR, for which the growth estimate was less than -0.25.
Then SRYSSVIR, with less than -0.25; and AGVEPCTVPELGKCSRVTRE, with less than -0.25; and TWLRCV, with less than -0.25.
Then HRIFRYAIPGSQGHSTVSSH, with less than -0.25; and AKLSEWRNNGALNLSLPMVS, with less than -0.25; and SRDWAGVYLDKLARVIRLSL, with less than -0.25.
Then GTR, with less than -0.25; and ARNGQRSAQWPELILTGYLC, with less than -0.25.
SGHPKAPGWAW: the growth estimate was less than -0.25.
Then SNA, with less than -0.25.
Consider LLSDGRSFAVAPK, for which the growth estimate is less than -0.25.
Take GSRNVLQRA: the growth estimate is less than -0.25.
Then CIKLKPCP, with less than -0.25; and IASQRVNRRQQKDLRGADPA, with less than -0.25; and IAIVKGRMPCYCQGGRPLYS, with less than -0.25.
Then GMSRTVQINDWNVGPRSK, with less than -0.25.
Then GSRYYPKRWTCSD, with less than -0.25; and ASGGRPRIEQ, with less than -0.25.
Regarding SEPKI, the growth estimate was less than -0.25.
TLAYGRSPIFLRGLEGSLGL: the growth estimate was less than -0.25.
Then GVGVYPEAYTRRG, with less than -0.25; and ASPSGTRDVRVNASVNVPEC, with less than -0.25; and EGQHHGEWSADTNGGLCRQR, with less than -0.25.
As to STERYCSTEVDYTYPIQVRA, the growth estimate was less than -0.25.
Then TCLSPVRTNPGVCGTQLSDD, with less than -0.25.
Then LLLSSVGSAAVRIEISEHRK, with less than -0.25.
On to LMPLCLERLFIICEAK, for which the growth estimate is less than -0.25.
Then RTRGRRYPV, with less than -0.25; and LQTRFLADPGQPRVVLFCGC, with less than -0.25.
Then QKATSCIIHGVRMTDLARRG, with less than -0.25.
Then RLNLFS, with less than -0.25; and NLRYPE, with less than -0.25; and CYVGLIHRHRPIRGGMDLPG, with less than -0.25.
On to KLT, for which the growth estimate was less than -0.25.
As to WGTASH, the growth estimate was less than -0.25.
Turning to IYHNIPVGGALPALRRPKRE, the growth estimate was less than -0.25.
Then VLFSLRSNPSPLGKVT, with less than -0.25.
Then TPSWPKSIRLINKRRV, with less than -0.25; and LYWEGQTQSLQQESHPL, with -0.237.
Take HEFKCRYRTR: the growth estimate was less than -0.25.
Then VGRRSISGEGLIV, with less than -0.25.
Then ILEPDVK, with less than -0.25; and CFVIPIGYFHGQI, with less than -0.25; and YGYVYNPYLMEKLGRRATVG, with -0.248.
As for FYRWATPGWYPTPLCV, the growth estimate is less than -0.25.
As to NIDGAHA, the growth estimate is less than -0.25.
Then AGADRCQDCIGYYVSRD, with less than -0.25; and IHFRGR, with -0.248.
Consider KPAV, for which the growth estimate is less than -0.25.
In the case of RLSYAV, the growth estimate is less than -0.25.
Then CKLRGPRSGRPRARSTLLQF, with -0.182; and GFLTRAIT, with less than -0.25.
With INYSNPVIYVIP, the growth estimate is less than -0.25.
Then TASSALGVFGVKANLLSSSR, with less than -0.25; and LRLLRLSGFSSCCQRRWPSL, with less than -0.25.
SEETMLYFANRDRLQLPEWR: the growth estimate is less than -0.25.
Take WANRGKTFLVLPSSVVAYIR: the growth estimate is less than -0.25.
With WIGVID, the growth estimate is less than -0.25.
Then NHARRRAVILPLPADHQTTD, with less than -0.25; and KDMDLRPNGR, with less than -0.25.
Then GPGVEYGPCIFVSGVNLSPG, with less than -0.25; and YVSACLRQATNFD, with less than -0.25; and IIERDVVNSKDVMSGRWGFY, with -0.111.
Then CAPRRGPPHMVILTAQAPRP, with less than -0.25.
As to SAKSGPTA, the growth estimate is -0.243.
EQGILSGLRRMVLNDTRALV: the growth estimate is less than -0.25.
For GKGTIRRIPDFCSLKATRVV, the growth estimate was less than -0.25.
As for TSLRIHW, the growth estimate was less than -0.25.
With LSLSGFRSQSGARLACRLIL, the growth estimate was less than -0.25.
For GWVRLTERLTDYGGHIWDFI, the growth estimate was less than -0.25.
Then TDD, with less than -0.25; and QDLVPFRHAEVHYNRVNDVV, with less than -0.25; and GVFYPIWRRSAAKHICLPSE, with less than -0.25.
